Test results: paper PMC9941469
Results are given in words; binding and its absence hold for the method and conditions named. In cells and extracts the contact can be indirect. Some entries that bind do so weakly or less than the wild type.

Chains of the proteins cited; added tags and fusions are not shown.
UniProt P70217: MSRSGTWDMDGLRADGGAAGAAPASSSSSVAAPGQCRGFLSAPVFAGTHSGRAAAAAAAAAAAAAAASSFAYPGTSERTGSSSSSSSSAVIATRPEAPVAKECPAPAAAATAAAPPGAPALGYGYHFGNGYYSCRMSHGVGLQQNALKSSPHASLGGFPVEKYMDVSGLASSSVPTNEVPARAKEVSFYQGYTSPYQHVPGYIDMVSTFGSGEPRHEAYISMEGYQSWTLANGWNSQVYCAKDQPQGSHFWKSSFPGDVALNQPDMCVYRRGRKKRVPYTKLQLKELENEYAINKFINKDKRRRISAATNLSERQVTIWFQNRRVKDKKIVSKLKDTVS
UniProt P97454: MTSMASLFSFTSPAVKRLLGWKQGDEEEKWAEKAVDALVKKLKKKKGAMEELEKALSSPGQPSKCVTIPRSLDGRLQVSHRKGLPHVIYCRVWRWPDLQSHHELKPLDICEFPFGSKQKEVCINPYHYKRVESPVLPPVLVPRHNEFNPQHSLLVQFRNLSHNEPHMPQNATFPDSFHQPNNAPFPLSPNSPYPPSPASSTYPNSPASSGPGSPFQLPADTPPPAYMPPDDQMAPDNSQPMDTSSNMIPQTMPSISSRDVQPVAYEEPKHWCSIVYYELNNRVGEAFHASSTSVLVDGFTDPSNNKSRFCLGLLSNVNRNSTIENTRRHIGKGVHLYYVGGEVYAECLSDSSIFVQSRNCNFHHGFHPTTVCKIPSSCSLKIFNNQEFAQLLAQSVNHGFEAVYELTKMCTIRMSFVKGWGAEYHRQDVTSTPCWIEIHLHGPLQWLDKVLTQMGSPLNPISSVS

Molecular target: Hoxd13 (homeobox D13), wild type, mouse (mouse (endogenous in osteoclasts derived from bone marrow monocytes)) (UniProt P70217)
Test: co-IP; lysates (IP lysis buffer) of osteoclasts derived from Hoxd13 wild or mutant bone marrow monocytes; Co-IP kit (Thermo Scientific Pierce); which protein was precipitated is not told

phosphorylated Smad5 (pSmad5), mouse (from UniProt P97454 1-465)
binding: binds
